Values from PubChem BioAssay AID1224826 (NIAID, 2016).
This is a random part of about 17,000 reagents tested. About 1,110 of them (6.6%) were called active. 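Active means lowered or raised reporter signal; replicate intensities are raw and not normalised per plate.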 Unmarked entries are inactive. Further read-outs or replicates are left out here.

- Screen: 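Knock-downs that raise or lower Tnf reporter signal after endotoxin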 (primary screen)
- Cells: RAW264.7 G9 macrophages from mouse bearing reporters for p65 (GFP) and the Tnf promoter (mCherry)
- Reagents: siRNA pool against mouse genes, 100 nM
- Duration: 16 h of LPS stimulation, after 2 days of siRNA transfection
- Treatment: bacterial lipopolysaccharide (Salmonella minnesota R595), 10 ng/ml
- Measured: 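Nuclear mCherry signal of the Tnf promoter reporter measured by imaging after background removal, scaled to each plate median and turned into robust z-scores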
- Scale: Tnf reporter robust z-score: higher = stronger Tnf promoter reporter signal after LPS
- Active means: 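Called active when robust z-score is at most -1.3, matching the median of the Tlr4 knock-down control, or over 3; control wells and wells with under 50 cells never active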
- Calls: active = Tnf reporter clearly lowered or raised; inactive = no clear change in Tnf reporter

Gene	Tnf reporter robust z-score	fewer than 50 cells in well
Lad1 (ladinin)	-0.76	enough cells in well
Vmn1r51 (vomeronasal 1 receptor 51)	1.05	enough cells in well
Erg (ETS transcription factor)	-0.45	enough cells in well
Anapc7 (anaphase promoting complex subunit 7)	2.38	enough cells in well
C1qtnf4 (C1q and tumor necrosis factor related protein 4)	-0.76	enough cells in well
Crx (cone-rod homeobox)	0.09	enough cells in well
Slc22a13b	-0.46	enough cells in well
Polr3k (polymerase (RNA) III (DNA directed) polypeptide K)		fewer than 50 cells per well; well left out of calls
Or1e29 (olfactory receptor family 1 subfamily E member 29)	-0.64	enough cells in well
Lrrc49 (leucine rich repeat containing 49)	0.6	enough cells in well
Actr1a (ARP1 actin-related protein 1A, centractin alpha)	-0.13	enough cells in well
Gmcl1 (germ cell-less, spermatogenesis associated 1)	0.91	enough cells in well
Clec2m (C-type lectin domain family 2, member m)	-0.49	enough cells in well
Cnot11 (CCR4-NOT transcription complex, subunit 11)	0.39	enough cells in well
Tmem106c (transmembrane protein 106C)	-0.66	enough cells in well
Nup93 (nucleoporin 93)	-0.83	enough cells in well
Foxs1 (forkhead box S1)	1.22	enough cells in well
Cx3cl1 (C-X3-C motif chemokine ligand 1)	-0.64	enough cells in well
Alg3 (ALG3 alpha-1,3- mannosyltransferase)	0.01	enough cells in well
Cpeb4 (cytoplasmic polyadenylation element binding protein 4)	0.39	enough cells in well
Gnb3 (guanine nucleotide binding protein (G protein), beta 3)	0.46	enough cells in well
Pla2g5 (phospholipase A2, group V)	-0.37	enough cells in well
Stx5a (syntaxin 5A)		fewer than 50 cells per well; well left out of calls
Itgb7 (integrin beta 7)	-0.19	enough cells in well
Zfp367 (zinc finger protein 367)	-1.4 (active)	enough cells in well
Plppr3 (phospholipid phosphatase related 3)	2.15	enough cells in well
Speer2 (spermatogenesis associated glutamate (E)-rich protein 2)	0.93	enough cells in well
Usp26 (ubiquitin specific peptidase 26)	-0.35	enough cells in well
Dip2b (disco interacting protein 2 homolog B)	-1.08	enough cells in well
Cyp17a1 (cytochrome P450, family 17, subfamily a, polypeptide 1)	0.36	enough cells in well
Sppl2c (signal peptide peptidase 2C)	1.94	enough cells in well
Clrn1 (clarin 1)	-0.59	enough cells in well
Nr2f6 (nuclear receptor subfamily 2, group F, member 6)	-0.44	enough cells in well
Blmh (bleomycin hydrolase)	-1.07	enough cells in well
Sp100 (nuclear antigen Sp100)	-0.38	enough cells in well
Klhl2 (kelch-like 2, Mayven)	-1.14	enough cells in well
4632434I11RIK	-0.02	enough cells in well
Gla (galactosidase, alpha)	-0.2	enough cells in well
Phxr2 (per-hexamer repeat gene 2)	-0.37	enough cells in well
Esd (esterase D/formylglutathione hydrolase)	0.24	enough cells in well

In a second layout: 5 of the entries above
Gene,Tnf reporter robust z-score,fewer than 50 cells in well
Zfp367 (zinc finger protein 367),-1.4 (active),enough cells in well
Plppr3 (phospholipid phosphatase related 3),2.15,enough cells in well
Speer2 (spermatogenesis associated glutamate (E)-rich protein 2),0.93,enough cells in well
Usp26 (ubiquitin specific peptidase 26),-0.35,enough cells in well
Dip2b (disco interacting protein 2 homolog B),-1.08,enough cells in well
